Experimental data from PMC10896376.
No constants are given. Whether binding was seen depends on the method and setting. In cells and extracts the contact can be indirect. Some results given as binding are weak or reduced against the parent protein; the word gives no strength.

Biological target: T1, human Fructosamine-3-kinase (HsFN3K) (human (endogenous in HepG2)) (UniProt Q9H479)
T1 sequence: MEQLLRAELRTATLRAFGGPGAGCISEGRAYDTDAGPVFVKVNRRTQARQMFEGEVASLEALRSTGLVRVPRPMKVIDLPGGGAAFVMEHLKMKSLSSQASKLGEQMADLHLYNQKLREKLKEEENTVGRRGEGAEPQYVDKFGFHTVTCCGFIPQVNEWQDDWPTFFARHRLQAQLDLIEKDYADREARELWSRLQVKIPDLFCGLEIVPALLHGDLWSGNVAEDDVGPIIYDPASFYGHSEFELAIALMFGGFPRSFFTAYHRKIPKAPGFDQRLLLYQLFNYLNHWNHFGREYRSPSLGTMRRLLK
Test: co-IP; subcellular fractions of HepG2 cells (cytoplasm, nucleus, mitochondria) in RIPA buffer, 400 ug protein, IP with anti-FN3K antibody and protein A/G plus agarose beads, 16 h at 4°C; immunoblot

- binding: binds
B1: Pyruvate dehydrogenase B (PDHB) (enzyme, UniProt P11177 31-359)
chain: LQVTVRDAINQGMDEELERDEKVFLLGEEVAQYDGAYKVSRGLWKKYGDKRIIDTPISEMGFAGIAVGAAMAGLRPICEFMTFNFSMQAIDQVINSAAKTYYMSGGLQPVPIVFRGPNGASAGVAAQHSQCFAAWYGHCPGLKVVSPWNSEDAKGLIKSAIRDNNPVVVLENELMYGVPFEFPPEAQSKDFLIPIGKAKIERQGTHITVVSHSRPVGHCLEAAAVLSKEGVECEVINMRTIRPMDMETIEASVMKTNHLVTVEGGWPQFGVGAEICARIMEGPAFNFLDAPAVRVTGADVPMPYAKILEDNSIPQVKDIIFAIKKTLNI
